No constants are given. Whether binding was seen depends on the method and setting. Binding seen in cells or lysates may run through a third protein. Some results given as binding are weak or reduced against the parent protein; the word gives no strength. Sequences can lack the tags named with a protein.
Molecular target: T1, Myc-tagged Tbx1 (UniProt P70323)
T1 sequence: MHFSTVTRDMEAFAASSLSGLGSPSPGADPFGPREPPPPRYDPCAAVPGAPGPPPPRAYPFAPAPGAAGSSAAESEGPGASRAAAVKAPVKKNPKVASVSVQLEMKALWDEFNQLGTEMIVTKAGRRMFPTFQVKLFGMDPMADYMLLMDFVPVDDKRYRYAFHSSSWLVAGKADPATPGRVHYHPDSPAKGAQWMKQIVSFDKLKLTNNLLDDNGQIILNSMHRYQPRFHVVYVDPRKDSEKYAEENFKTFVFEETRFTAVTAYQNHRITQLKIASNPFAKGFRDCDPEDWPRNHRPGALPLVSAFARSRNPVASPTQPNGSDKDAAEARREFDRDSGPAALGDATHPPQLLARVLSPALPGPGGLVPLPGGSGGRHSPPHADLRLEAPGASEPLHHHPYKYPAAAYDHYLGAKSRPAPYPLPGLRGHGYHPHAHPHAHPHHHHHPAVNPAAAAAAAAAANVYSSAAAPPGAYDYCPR
Assay: co-IP; COS1 cells transfected with FLAG-tagged Foxc1/Foxc2 or Myc-tagged Tbx1; lysis buffer 20 mM Tris-HCl pH 8.0, 137 mM NaCl, 1% NP-40, 2 mM EDTA; precipitated with anti-c-Myc antibody (9E10) and protein G Sepharose; blotted with anti-Myc or anti-DDDDK-tag

binding: binds
B1: FLAG-tagged Foxc1 (protein, UniProt Q61572 1-553)
chain: MQARYSVSSPNSLGVVPYLGGEQSYYRAAAAAAGGGYTAMPAPMSVYSHPAHAEQYPGSMARAYGPYTPQPQPKDMVKPPYSYIALITMAIQNAPDKKITLNGIYQFIMDRFPFYRDNKQGWQNSIRHNLSLNECFVKVPRDDKKPGKGSYWTLDPDSYNMFENGSFLRRRRRFKKKDAVKDKEEKGRLHLQEPPPPQAGRQPAPAPPEQAEGSAPGPQPPPVRIQDIKTENGTCPSPPQPLSPAAALGSGSAATVPKIESPDSSSSSLSSGSSPPGSLPSARPLSLDAAEPAPPPQPAPPPHHSQGFSVDNIMTSLRGSPQGSAAELGSGLLASAAASSRAGIAPPLALGAYSPGQSSLYSSPCSQSSSAGSSGGGGGGGGGGGGSSSAAGTGGAATYHCNLQAMSLYAAGERGGHLQGPAGGAGSAAVDDPLPDYSLPPATSSSSSSLSHGGGGQEASHHPASHQGRLTSWYLNQAGGDLGHLASAAAAAAAAGYPGQQQNFHSVREMFESQRIGLNNSPVNGNSSCQMAFPASQSLYRTSGAFVYDCSKF

From paper PMC5533775
